Data: PubChem BioAssay AID248 (DTP/NCI, 2004)
The list is a part of this screen's results and no random one: it is rich in T/C values a quarter to a half above the control, in often repeated tests (any T/C) and in doses without a T/C. Further doses and runs are listed elsewhere. T/C: endpoint of the treated group in % of that of the vehicle group. For survival time, this PubChem deposit counts one and a half times the control or more as active, and values a quarter to a half above the control carry no call in these data; other NCI protocols may use other cut-offs. Schedules are NCI's codes, taken here to give the interval after Q, in days (D) or hours (H), and the number of doses after X. Signs of the kind (2×) say how often a value occurs here. Some entries hold several experiments; the values are given in rising order. Some schedule codes hold Z or #, which are not explained here.

System: L1210 leukemia ip in BDF1 mice, survival T/C
Assay: NCI In Vivo Anticancer Drug Screen. Data for tumor model L1210 Leukemia (intraperitoneal) in B6D2F1 (BDF1) mice
Settings: T/C endpoint: mean survival time, vehicle: saline, higher T/C = longer survival

With `CSc1ncnc2c1ncn2C1OC(CO)C(O)C1O` (stereo unspecified) the T/C (dose: 1.0 mg/kg/injection, schedule: Q#A X Z (ip)) was 128 % of control, the T/C (dose: 1.63 mg/kg/injection, schedule: Q07DX003 (ip)) was 130 % of control and the T/C (dose: 2.0 mg/kg/injection, schedule: Q#A X Z (ip)) was 128 and 136 % of control. The T/C (dose: 2.5 mg/kg/injection, schedule: Q06HX068 (ip)) was 129 % of control, the T/C (dose: 3.2 mg/kg/injection, schedule: Q07DX003 (ip)) was 125 % of control and the T/C (dose: 4.0 mg/kg/injection, schedule: Q01DX009 (ip)) was 101, 113, 117, 120 % of control. The T/C (dose: 4.0 mg/kg/injection, schedule: Q01DX Z (ip)) was 126 and 129 % of control, the T/C (dose: 4.0 mg/kg/injection, schedule: Q#A X Z (ip)) was 134 and 145 % of control and the T/C (dose: 5.0 mg/kg/injection, schedule: Q01DX010 (ip)) was 135 % of control. The T/C (dose: 5.0 mg/kg/injection, schedule: Q06HX068 (ip)) was 141 % of control, the T/C (dose: 5.3 mg/kg/injection, schedule: Q06HX012 (ip)) was 129 % of control and the T/C (dose: 6.25 mg/kg/injection, schedule: Q01DX009 (ip)) was 131 % of control. The T/C (dose: 8.0 mg/kg/injection, schedule: Q01DX009 (ip), evaluated on day 5) was 119 and 138 % of control, the T/C (dose: 8.0 mg/kg/injection, schedule: Q01DX009 (ip), evaluated on day 30) was 118, 128 (2×), 129 % of control and the T/C (dose: 8.0 mg/kg/injection, schedule: Q01DX009 (ip), evaluated on day 45) was 119 and 138 % of control. The T/C (dose: 8.0 mg/kg/injection, schedule: Q01DX Z (ip)) was 132, 140, 146 % of control, the T/C (dose: 8.0 mg/kg/injection, schedule: Q06HX012 (ip)) was 133 % of control and the T/C (dose: 8.0 mg/kg/injection, schedule: Q12HX012 (ip)) was 132 % of control. For the same compound, the T/C (dose: 8.0 mg/kg/injection, schedule: Q#A X Z (ip)) was 147 % of control, the T/C (dose: 8.8 mg/kg/injection, schedule: Q01DX015 (ip)) was 127 % of control and the T/C (dose: 9.0 mg/kg/injection, schedule: Q01DX015 (ip), evaluated on day 5) was 124, 126, 128, 129 (2×), 134, 136 (3×), 139 (2×), 140 (2×), 143 % of control. For the same compound, the T/C (dose: 9.0 mg/kg/injection, schedule: Q01DX015 (ip), evaluated on day 35) was 140 % of control, the T/C (dose: 9.0 mg/kg/injection, schedule: Q01DX015 (ip), evaluated on day 45) was 140 % of control and the T/C (dose: 9.0 mg/kg/injection, schedule: Q01DX015 (ip), evaluated on day 46) was 121 % of control. For the same compound, the T/C (dose: 9.0 mg/kg/injection, schedule: Q01DX015 (ip), run until all animals had died) was 125 % of control, the T/C (dose: 9.0 mg/kg/injection, schedule: Q## X015 (ip)) was 129, 134, 143 % of control and the T/C (dose: 10.0 mg/kg/injection, schedule: Q01DX010 (ip)) was 130, 136, 142 % of control. For the same compound, the T/C (dose: 10.0 mg/kg/injection, schedule: Q01DX017 (ip)) was 126 % of control, the T/C (dose: 10.0 mg/kg/injection, schedule: Q#A X034 (ip)) was 131 % of control and the T/C (dose: 11.0 mg/kg/injection, schedule: Q01DX015 (ip)) was 128 and 131 % of control. The T/C (dose: 11.7 mg/kg/injection, schedule: Q01DX015 (ip)) was 132 % of control, the T/C (dose: 12.0 mg/kg/injection, schedule: Q01DX009 (ip), evaluated on day 5) was 127 and 130 % of control and the T/C (dose: 12.0 mg/kg/injection, schedule: Q01DX009 (ip), evaluated on day 45) was 127 and 130 % of control. For the same compound, the T/C (dose: 12.0 mg/kg/injection, schedule: Q01DX015 (ip)) was 129 % of control, the T/C (dose: 12.5 mg/kg/injection, schedule: Q01DX005 (ip)) was 132 and 134 % of control and the T/C (dose: 12.5 mg/kg/injection, schedule: Q01DX010 (ip)) was 132 and 139 % of control. The T/C (dose: 13.0 mg/kg/injection, schedule: Q01DX015 (ip)) was 130 and 136 % of control, the T/C (dose: 13.0 mg/kg/injection, schedule: Q02DX008 (ip)) was 135 % of control and the T/C (dose: 13.0 mg/kg/injection, schedule: Q06HX012 (ip)) was 145 % of control. The T/C (dose: 13.0 mg/kg/injection, schedule: Q07DX003 (ip)) was 125 % of control (2×), the T/C (dose: 13.0 mg/kg/injection, schedule: Q12HX006 (ip)) was 137 % of control and the T/C (dose: 13.0 mg/kg/injection, schedule: Q12HX012 (ip)) was 148 % of control. The T/C (dose: 14.0 mg/kg/injection, schedule: Q01DX015 (ip), evaluated on day 5) was 134, 137, 138, 139 (2×), 141, 145, 147 (2×), 148, 150, 151, 158, 159 % of control, the T/C (dose: 14.0 mg/kg/injection, schedule: Q01DX015 (ip), evaluated on day 35) was 160 % of control and the T/C (dose: 14.0 mg/kg/injection, schedule: Q01DX015 (ip), evaluated on day 45) was 150 % of control. For the same compound, the T/C (dose: 14.0 mg/kg/injection, schedule: Q## X015 (ip)) was 138 and 141 % of control, the T/C (dose: 14.0 mg/kg/injection, schedule: Q## X032 (ip)) was 126 % of control and the T/C (dose: 15.0 mg/kg/injection, schedule: Q01DX010 (ip)) was 136 % of control. The T/C (dose: 15.0 mg/kg/injection, schedule: Q01DX015 (ip)) was 144 % of control, the T/C (dose: 16.0 mg/kg/injection, schedule: Q01DX009 (ip)) was 129, 134, 151, 155 % of control and the T/C (dose: 16.0 mg/kg/injection, schedule: Q01DX010 (ip)) was 129, 132, 141 % of control. For the same compound, the T/C (dose: 16.0 mg/kg/injection, schedule: Q01DX Z (im)) was 139 % of control, the T/C (dose: 16.0 mg/kg/injection, schedule: Q01DX Z (ip)) was 139 % of control and the T/C (dose: 17.0 mg/kg/injection, schedule: Q01DX015 (ip)) was 128 % of control. For the same compound, the T/C (dose: 17.5 mg/kg/injection, schedule: Q01DX015 (ip)) was 147 % of control, the T/C (dose: 18.0 mg/kg/injection, schedule: Q01DX009 (ip), evaluated on day 5) was 133 and 135 % of control and the T/C (dose: 18.0 mg/kg/injection, schedule: Q01DX009 (ip), evaluated on day 45) was 133 and 135 % of control. For the same compound, the T/C (dose: 18.0 mg/kg/injection, schedule: Q01DX015 (ip)) was 144 % of control, the T/C (dose: 20.0 mg/kg/injection, schedule: Q01DX003 (ip), evaluated on day 5) was 141 % of control and the T/C (dose: 20.0 mg/kg/injection, schedule: Q01DX003 (ip), evaluated on day 35) was 141 % of control. For the same compound, the T/C (dose: 20.0 mg/kg/injection, schedule: Q01DX017 (ip)) was 127 % of control, the T/C (dose: 20.0 mg/kg/injection, schedule: Q02DX008 (ip)) was 135 % of control and the T/C (dose: 20.0 mg/kg/injection, schedule: Q06HX012 (ip)) was 135 % of control. For the same compound, the T/C (dose: 20.0 mg/kg/injection, schedule: Q12HX006 (ip)) was 136 % of control, the T/C (dose: 21.0 mg/kg/injection, schedule: Q01DX015 (ip), evaluated on day 5) was 147, 148, 152 (2×), 158, 163, 166, 167, 169, 175 (2×), 181, 186, 194 % of control and the T/C (dose: 21.0 mg/kg/injection, schedule: Q01DX015 (ip), evaluated on day 35) was 175 % of control. For the same compound, the T/C (dose: 21.0 mg/kg/injection, schedule: Q01DX015 (ip), evaluated on day 45) was 181 % of control, the T/C (dose: 21.0 mg/kg/injection, schedule: Q01DX015 (ip), run until all animals had died) was 124 % of control and the T/C (dose: 21.0 mg/kg/injection, schedule: Q## X015 (ip)) was 147 % of control. The T/C (dose: 24.0 mg/kg/injection, schedule: Q## X032 (ip)) was 136 % of control and the T/C (dose: 25.0 mg/kg/injection, schedule: Q01DX005 (ip)) was 137 % of control.
